{"source": "patent US20050288227A1", "about": "“Use of thioredoxin measurements for diagnostics and treatments” (priority 2002, published 2005)", "origin": "cited, not measured here", "system": "HDAC", "conditions": "literature statement; cited from earlier work", "note": "For at least one compound, name, drawing or mass did not settle the structure.", "data": [{"smiles": "CCC(=O)CCCCC[C@@H]1NC(=O)[C@H]2CCCCN2C(=O)[C@H]([C@@H](C)CC)NC(=O)[C@H](Cc2cn(OC)c3ccccc23)NC1=O", "note": "[apicidin, cyclo (N O-methyl-L-tryptophanyl-L-isoleucinyl-D-pip-ecolinyl-L-2-amino-8oxodecanoyl)]", "values": [{"measurement": "HDAC inhibitory potency (level of activity)", "value": "active at nanomolar levels"}]}]}
